# Measured values as given in patent publication US11020462B2, “Methods for treatment of diseases” (SERPIN PHARMA, LLC, priority 2015, dated 2021).
# Not every detail of the peptide structures is certain; ends, links or a residue may be inferred.
# Tested on: TNF-alpha
# Assay: LPS challenged mouse model of sepsis, TNF-alpha levels
# Assay type: in vivo
# Text: Specifically, in these particular fragments, the three most N-terminal and the two most C-terminal amino acids appear to play a role in the anti-inflammatory properties of the peptides as replacement of them appeared to reduce the capacity of the peptides to reduce TNF-alpha levels in a LPS challenged mouse model of sepsis (see, e.g., PCT/US13/20498; which is incorporated by reference herein in its entirety). Accordingly, in some aspects of all embodiments of the invention the peptides are selected from SP40, SP43, SP46, and SP49 the peptide sequences of which are set forth in Table B.
# Table C below presents additional exemplary peptides that were used to reduce TNF-alpha levels in mice subjected to an LPS challenge. Also the peptides with capacity to reduce TNF-alpha levels as described in PCT/US13/20498; which is incorporated by reference herein in its entirety, are contemplated for the compositions, pharmaceutical compositions and methods of use and treatment of inflammatory conditions in the present invention.
smiles,measurement,value
CC[C@H](C)[C@H](NC(=O)[C@H](CCSC)NC(=O)[C@H](CC(C)C)NC(=O)[C@H](Cc1ccccc1)NC(=O)[C@@H](NC(=O)[C@H](Cc1ccccc1)NC(=O)[C@@H]1CCCN1C(=O)[C@H](CCCCN)NC(=O)[C@H](CC(N)=O)NC(=O)[C@H](Cc1ccccc1)NC(=O)[C@H](CCCCN)NC(=O)[C@@H](N)C(C)C)C(C)C)C(=O)N[C@@H](CCC(=O)O)C(=O)N[C@@H](CCC(N)=O)C(=O)N[C@@H](CC(N)=O)C(=O)N[C@H](C(=O)N[C@@H](CCCCN)C(=O)O)[C@@H](C)O [SP16],anti-inflammatory effect,particularly good anti-inflammatory effect
